Test system: APPs secretion by NIH 3T3 cell lines

SMILES | Density of APPs band
COc1ccc2cc([C@@H](C)C(=O)O)ccc2c1 [R-Naproxen] | 3.34 ± 0.41
COc1ccc2cc([C@H](C)C(=O)O)ccc2c1 [S-Naproxen] | 2.78 ± 0.79

From US6255347A (priority 1997, dated 2001)
